In the supplement of paper PMC9549374:
The other results are listed elsewhere or left out. Rule as the data show it: active = 2-fold of DMSO or more and inactive = the rest. Single values of this set are uncertain. Some low values are a fixed figure set by the source, not a measured ratio.

These compounds were tested on CM7/1-hgem mouse ES cell-derived cardiomyocytes (assay: maximal number of mAG-hGem(1/110)-positive cardiomyocytes over 96 h, fold-change vs DMSO; higher = more cardiomyocyte cell cycle activity). Conditions: 1 µM; 96 (max over 12 h time points) h.

Compound	maximal number
C[C@@H]1O[C@@H](Oc2c(-c3ccc(O)c(O)c3)oc3cc(O)cc(O)c3c2=O)[C@H](O)[C@H](O)[C@H]1O	active: 3
C[C@@H](O)[C@H]1C(=O)N2C(C(=O)O)=C(S[C@@H]3CN[C@H](C(=O)N(C)C)C3)[C@H](C)[C@H]12	inactive: 1
C[C@@H]1CC[C@@]2(OC1)O[C@H]1C[C@H]3[C@@H]4CC[C@H]5C[C@@H](O)CC[C@]5(C)[C@H]4CC[C@]3(C)[C@H]1[C@@H]2C	inactive: 1
Nc1nc2[nH]cc(CCc3ccc(C(=O)N[C@@H](CCC(=O)O)C(=O)O)cc3)c2c(=O)[nH]1	inactive: 0.5
CC1=CC2C(C(C)C)CCC(C)(O)C2CC1 (configuration not stated)	inactive: 0
Oc1cc(O)c2c(c1)O[C@H](c1ccc(O)c(O)c1)[C@@H](O)C2	inactive: 1
COc1ccc(CN2CCN(C(c3ccc(F)cc3)c3ccc(F)cc3)CC2)c(OC)c1OC	inactive: 0
